From patent US6492404B1, “Thiazolylcinnamonitriles and pest controlling agents” (Nippon Soda Co., Ltd., priority 1998, dated 2002)
Some results were stated once for a whole list of compounds, not compound by compound. At least one structure is not confirmed: it was looked up by name or label, or the drawing left a doubt.

What was measured:
[1] = test system: Pseudaletia separata Walker; assay: Effects on Pseudaletia separata Walker (corn leaf immersion, third instar larvae); format: in vivo; conditions: wettable powder diluted to 125 ppm, corn leaves immersed 30 seconds, 25° C., 65% RH, assessed 6 days after treatment
Description: Effects on Pseudaletia separata Walker
According to the instructions of the wettable powder described in the above Example 2, a wettable powder was diluted with water to make the compound concentration 125 ppm. Corn leaves were immersed in the solution for 30 seconds, air-dried and placed in a Petri dish containing 5 third instar larvae of Pseudaletia separata Walker. The dish was covered with a glass lid and placed in a thermostatic chamber of temperature of 25° C. and relative humidity of 65%. Mortality was assessed 6 days after treatment. Each test was replicated twice.

[2] = test system: Aphis gossypii Glover; assay: Effects on Aphis gossypii Glover (spray over cucumber seedlings infested with hatched nymphs); format: in vivo; conditions: emulsifiable concentrate diluted to 8 ppm; sprayed over cucumber seedlings with hatched nymphs; 25° C., 65% RH; assessed 6 days after treatment

SMILES | mortality [1] [%] | mortality [2] [%]
Cc1ccccc1C(=O)OC(=C(C#N)c1nc(-c2ccccc2C)cs1)c1ccccc1C (mixture of isomers) [5-61] | 100 | 100
Cc1ccccc1C(OC(=O)C(C)(C)C)=C(C#N)c1nc(-c2ccccc2C)cs1 (mixture of isomers) [5-62] | 100 | 100
Cc1ccccc1-c1csc(C(C#N)=C(OC(=O)C(C)(C)C)c2ccccc2F)n1 (mixture of isomers) [5-63] | 100 | 100
Cc1ccccc1-c1csc(C(C#N)=C(OC(=O)C(C)(C)C)c2ccccc2Cl)n1 (mixture of isomers) [5-64] | 100 | 100
Cc1ccccc1-c1csc(C(C#N)=C(OC(=O)C(C)(C)C)c2ccccc2Br)n1 (mixture of isomers) [5-65] | 100 | 100
Cc1ccccc1-c1csc(C(C#N)=C(OC(=O)C(C)(C)C)c2c(C)cccc2F)n1 (mixture of isomers) [5-68] | 100 | 100
Cc1cccc(-c2csc(C(C#N)=C(OC(=O)C(C)(C)C)c3ccccc3C(F)(F)F)n2)c1 (mixture of isomers) [5-69] | 100 | 100
Cc1ccccc1C(OC(=O)C(C)(C)C)=C(C#N)c1nc(-c2cccc(F)c2F)cs1 (mixture of isomers) [5-74] | 100 | 100
Cc1ccccc1C(OC(=O)C(C)(C)C)=C(C#N)c1nc(-c2c(F)ccc(F)c2F)cs1 (mixture of isomers) [5-78] | 100 | 100
Cc1ccccc1C(OC(=O)C(C)(C)C)=C(C#N)c1nc(-c2c(F)cccc2Cl)cs1 (mixture of isomers) [5-80] | 100 | 100
Cc1ccccc1C(OC(=O)C(C)(C)C)=C(C#N)c1nc(-c2cccc(F)c2C)cs1 (mixture of isomers) [5-83] | 100 | 100
Cc1ccccc1C(OC(=O)C(C)(C)C)=C(C#N)c1nc(-c2ccc(F)cc2C)cs1 (mixture of isomers) [5-84] | 100 | 100
Cc1cccc(F)c1-c1csc(C(C#N)=C(OC(=O)C(C)(C)C)c2ccccc2C(F)(F)F)n1 (mixture of isomers) [5-87] | 100 | 100
Cc1ccccc1C(OC(=O)C(C)(C)C)=C(C#N)c1nc(-c2c(C)cccc2F)cs1 (mixture of isomers) [5-88] | 100 | 100
Cc1ccccc1C(OC(=O)C(C)(C)C)=C(C#N)c1nc(C(C)(C)C)cs1 (mixture of isomers) [5-96] | 100 | 100
Cc1ccccc1C(OC(=O)C(C)(C)C)=C(C#N)c1nc(-c2ccccn2)cs1 (mixture of isomers) [5-99] | 100 | 100
Cc1ccccc1C(OC(=O)C(C)(C)C)=C(C#N)c1nc(-c2cccs2)cs1 (mixture of isomers) [5-100] | 100 | 100
CC(C)(C)C(=O)OC(=C(C#N)c1nc(-c2c(F)cccc2F)cs1)c1ccc(F)cc1Cl (mixture of isomers) [5-101] | 100 | 100
COc1cccc(F)c1C(OC(=O)C(C)(C)C)=C(C#N)c1nc(-c2c(F)cccc2F)cs1 (mixture of isomers) [5-102] | 100 | 100
Cc1ccccc1C(OC(=O)C(C)(C)C)=C(C#N)c1nc(C2(C)CCCCC2)cs1 (mixture of isomers) [5-103] | 100 | 100
CC(C)(C)C(=O)OC(=C(C#N)c1nc(C2(C)CCCCC2)cs1)c1ccccc1C(F)(F)F (mixture of isomers) [5-104] | 100 | 100
Cc1ccccc1C(OC(=O)C(C)(C)C)=C(C#N)c1nc(C2CCCCC2C)cs1 (mixture of isomers) [5-105] | 100 | 100
CC1CCCCC1c1csc(C(C#N)=C(OC(=O)C(C)(C)C)c2ccccc2C(F)(F)F)n1 (mixture of isomers) [5-106] | 100 | 100
CCCC(C)(C)C(=O)OC(=C(C#N)c1nc(-c2c(F)cccc2F)cs1)c1ccccc1C (mixture of isomers) [5-107] | 100 | 100
CCC(C)(C)C(=O)OC(=C(C#N)c1nc(-c2c(F)cccc2F)cs1)c1ccccc1C(F)(F)F (mixture of isomers) [5-108] | 100 | 100
CCCC(C)(C)C(=O)OC(=C(C#N)c1nc(-c2c(F)cccc2F)cs1)c1ccccc1C(F)(F)F (mixture of isomers) [5-109] | 100 | 100
Cc1ccccc1C(OC(=O)C(C)(C)C)=C(C#N)c1nc(C2CCCCC2)cs1 (mixture of isomers) [5-110] | 100 | 100
CC(C)(C)C(=O)OC(=C(C#N)c1nc(-c2c(F)cccc2F)cs1)c1ccccc1C(F)(F)F (single isomer, unassigned) [5-1] | 100 | 100
Cc1ccccc1C(OC(=O)c1ccccc1)=C(C#N)c1nc(-c2c(F)cccc2F)cs1 (single isomer, unassigned) [5-6] | 100 | 100
Cc1ccccc1C(OC(=O)C(C)(C)C)=C(C#N)c1nc(-c2cc(F)ccc2C)cs1 (single isomer, unassigned) [5-85] | 100 | 100
